Results published in the supplement of paper PMC5949888.
± gives the standard deviation of the averaged measurements. Most values lie at the floor of the assay. Slopes are relative: functional sequences can read slightly below zero.

Each substance was assayed on Saccharomyces cerevisiae PS128 hsf1 delta, HSF1(1-493) fusion (assay: growth estimate (transactivation domain function in HSF1 fusion, heat-shock survival) (a.u. (slope of normalised read count over time)); higher = stronger growth at 37°C, i.e. more transactivation activity). Conditions: library: random library.

| Substance | growth estimate |
| --- | --- |
| GLNSS | -0.239 |
| GGLRVG | < -0.25 |
| RASIRQSRIGGSATATPVGV | < -0.25 |
| PYTRGRTRGLPRKKISLHTR | < -0.25 |
| VYLFLGLGGHVSSKWIEHPR | < -0.25 |
| NFGTFQL | < -0.25 |
| KYGYLRTSSSLVDTYLRGNG | < -0.25 |
| LVNPLFRCVVGSLNTSRIMG | < -0.25 |
| CRVIVILRFLGHWICC | < -0.25 |
| KTGPPEYVY | < -0.25 |
| RSDDPAVLRFSAKVRYAFQS | < -0.25 |
| SSVLTSKVWIAARRVL | < -0.25 |
| VYNTLGAN | < -0.25 |
| PTRGVKSRAELQWANFVFWR | < -0.25 |
| ILVRSAPSAIGLRMASLVGV | < -0.25 |
| PGEIIFSDPSGPSECVIMRK | < -0.25 |
| PQRSMDVRNMISI | < -0.25 |
| RVHTIG | < -0.25 |
| GIRSA | < -0.25 |
| TCAMGAEWKLPPRPGTAPRP | < -0.25 |
| TDDLSGVHLWTMQRDRIVRA | < -0.25 |
| RRRFTDVAVRSMIGGSST | < -0.25 |
| IDGCYPFRRILCQCGFCGQG | < -0.25 |
| SGLHLNVRWCYGGSGC | < -0.25 |
| SRDNQLSEHS | < -0.25 |
| FEDPARGNRDSAVHYLFRWE | -0.247 |

| Substance | growth estimate |
| --- | --- |
| LVAEVKWGATVTTSPPALNN | < -0.25 |
| GCSPSRTVINSYRVREKRCR | -0.245 |
| WWDLVPGLSIVVVGIRKTHR | < -0.25 |
| TQQRHFGLSSTESTTFTLRV | < -0.25 |
| GEAVP | < -0.25 |
| HPSPVA | < -0.25 |
| GLDGQRCGKLCSKVRFLTPL | < -0.25 |
| IDHSRRARIPYYRAKDFS | < -0.25 |
| SVKGASRGSCLARVVGS | < -0.25 |
| CVVCRGPNDCHELCMRGTLR | < -0.25 |
| RVGKVPAELQFSINFSEALV | < -0.25 |
| GIGLSIHLPVRTFSRCWSRF | < -0.25 |
| PDS | < -0.25 |
| GGRRPGTSRVRSSTEK | < -0.25 |
| VVCSRSTLCGYRLLGPQI | < -0.25 |
| VPVIGPCRRLVRRGPKFYR | < -0.25 |
| LERPSY | < -0.25 |
| GTTIVALTAIARGRSTTLPT | < -0.25 |
| LRSPGATGIMG | -0.243 |
| LDSEFCVRVTYDEQLV | < -0.25 |
| TDLIRWLYTGPVRCWSVIGY | < -0.25 |
| ASEGARAHKPLVWVSGGLLQ | < -0.25 |
| MNLPEQFM | < -0.25 |
| QLGQLAYPSQSGDEMLLTTP | < -0.25 |
| MFPLSPWVGLWAISRHRPRP | < -0.25 |
| RIFWQHQSRSS | < -0.25 |

| Substance | growth estimate |
| --- | --- |
| DPYARASGCRRSGTNLSAKI | < -0.25 |
| EQRIDGLTHTIRTSIL | < -0.25 |
| TRMKRGGGRTITRYRLP | < -0.25 |
| CTKLITRKRFPVDSVNGIAI | < -0.25 |
| VTETCDNPRMLIEQVKGLMA | < -0.25 |
| LKGQRFHTYGSWVIGYSAVV | < -0.25 |
| LSASFWDSSDYNTGGVHTKD | < -0.25 |
| AQKATNKLE | < -0.25 |
| SISATVWVHGRISRMSLL | < -0.25 |
| ADPSP | < -0.25 |
| IAVFPLQVIGRQVGQPVC | < -0.25 |
| GESWRWTLAWRDGQVCAI | < -0.25 |
| PYQKG | < -0.25 |
| AAEISCLENACDLVYIDHCG | < -0.25 |
| LPKGGSLRRFCATGWH | -0.0328 |
| FHCTHRLRSASGEVTPHDER | < -0.25 |
| SDQITFRSI | < -0.25 |
| NKGD | -0.243 |
| ITRSPPDR | < -0.25 |
| TNVPGSLVYLQEVSLYAMNQ | < -0.25 |
| LVLSYSVSTLSEGSIEGVRS | -0.203 |
| DIQ | < -0.25 |
| SYGVLAVR | < -0.25 |
| AGANSHSVSYSRQPGLTSR | < -0.25 |
| DIG | < -0.25 |
| NGWAQLFKARLRKGQ | < -0.25 |

A different layout for some results above.
Substance,growth estimate
SVKGASRGSCLARVVGS,< -0.25
TNVPGSLVYLQEVSLYAMNQ,< -0.25

Further results:

| Substance | growth estimate |
| --- | --- |
| GAARVWKS | < -0.25 |
| RSHSVSSGLPHRFEFSMDGK | < -0.25 |
| CMRCLRLWPSGPKSHAVPAE | < -0.25 |
| KYRSRAAGTRQKAYQRQASA | < -0.25 |
| RSRFLCALGTDCRISSRIRP | < -0.25 |
| LVSQTGIPQAVRTRRRVWVP | < -0.25 |
| TSRIDLSQGSKGLGATMG | < -0.25 |
| PHWTMVRFSIYAWRDWFRAS | < -0.25 |
| YSKCGYVVGINTRTCSQRLP | < -0.25 |
| NRIEGWFKGL | < -0.25 |
| SPVGSASPGGYRVVA | < -0.25 |
| INWKGLVVEVRQ | < -0.25 |
| GCIVDYYIIIKSQTLHFVTF | < -0.25 |
| EHGHT | < -0.25 |
| SAPVSILARKPRVGVGWFRR | < -0.25 |
| TDRQAMELLIRAAGHNLAS | < -0.25 |
| RGIAAGLKILGGRRDRLGAL | < -0.25 |
| PSWMPEYPRTLVVAR | 0.0226 |
| GRPSSSKL | < -0.25 |
| IWRVAKVREVAYGYGPVLTA | < -0.25 |
| CMKPVEQGGVCGLQIQELKR | < -0.25 |
| HASCGGGKIHWSVNW | < -0.25 |
| ITVPVGVRLWDAEAVVKKM | < -0.25 |
| AASSTLNVADVYSGRYARNV | < -0.25 |
| SVFVHLLPVMPTWSR | < -0.25 |
| KIRGTSCVIKPVCANPASPA | < -0.25 |

| Substance | growth estimate |
| --- | --- |
| VMILGEVRFRAEAMEYHTVT | < -0.25 |
| NEFGGDMPVSCSTAS | < -0.25 |
| RVTRYHFYGARDSSFPINWR | < -0.25 |
| VQPHPSCAPITVGLDAVLQI | < -0.25 |
| FGQYGRNLLVLRR | < -0.25 |
| SVRNPGCSLEVSQARG | < -0.25 |
| LLDEGLVASAHLLISIILVS | < -0.25 |
| VNGA | < -0.25 |
| TLRRTGRFTGPGYILPKGET | < -0.25 |
| SRSEPGSWALLNLNVGRDCP | < -0.25 |
| GATRRQGTCVKASTGALRTQ | < -0.25 |
| ARW | < -0.25 |
| EGMFSGP | < -0.25 |
| QWGRTVREAE | < -0.25 |
| VRLATWGHALKKVRTIGHMA | < -0.25 |
| SRVGERSRLANMRK | < -0.25 |
| PRENRTLFVANGPISGATAA | < -0.25 |
| ASGSLYQSTRTSVKGVYGSS | < -0.25 |
| NPTRRTYF | -0.22 |
| LRLR | -0.241 ± 0.013 |
| RDASSPILPQHVGGCLYYRH | < -0.25 |
| FVGPRLNSPSGTGAH | < -0.25 |
| RYA | < -0.25 |
| LCTHSGLWRNPSNYRFGQAA | < -0.25 |
| KGLEWAHAG | < -0.25 |
| YSQGESEQRNRQCSWLVP | < -0.25 |

Looked up above.
growth estimate with SPVGSASPGGYRVVA is entered as < -0.25
growth estimate with RSHSVSSGLPHRFEFSMDGK is entered as < -0.25
growth estimate with RVHTIG is entered as < -0.25
growth estimate with GCSPSRTVINSYRVREKRCR is entered as -0.245
growth estimate with SRVGERSRLANMRK is entered as < -0.25
growth estimate with CMRCLRLWPSGPKSHAVPAE is entered as < -0.25

Remaining list, next part.

| Substance | growth estimate |
| --- | --- |
| GDAWGLGHEPGSIWDPRS | -0.195 |
| VFLCRQVRIDWTRPSRGRII | < -0.25 |
| KAGKKTYMRILTTLDAFTR | -0.246 |
| IPPVRRLRFSGKAGPVI | < -0.25 |
| QVDVTSKLTPLSSKLLWACS | < -0.25 |
| TLNPLATGFSFQ | < -0.25 |
| HGERKVVLFMCSAVRRPGGC | < -0.25 |
| QHGTRVRRGGLHV | < -0.25 |
| DPT | < -0.25 |
| CISLSSVRRGKYCAYPIGGK | < -0.25 |
| LLIIRGLDQPGPACKFCLST | < -0.25 |
| CCGVIPHDRGARRVGKCKTR | < -0.25 |
| RLHRGLMGVDRTRFPPVVRG | < -0.25 |
| SLCFSIRVYVYLMCQIGELS | < -0.25 |
| AYSKI | < -0.25 |
| VDRIGLGPVYIFLTTSEHLA | < -0.25 |
| KRSDSMFHRHAIFHPKRTRV | < -0.25 |
| HGARSAVRRGLYHFLSKRDF | < -0.25 |
| SWLGRNPTYSLRIAMTDRVS | < -0.25 |
| PARIKRYSRVVWPGNSLNTP | < -0.25 |
| SVGIARARYRVRRVTSRKWY | < -0.25 |
| FRLLGVAS | < -0.25 |
| LVNGRPSRMLDKGYLVAPLA | < -0.25 |
| GCAQIRLRKTVLSLGYSGRR | < -0.25 |
